28 molecules from PubChem BioAssay (NCATS) can be followed below.

Some of the results follow. Further columns of the screen follow, without active or inactive calls. The list favours compounds with an active or inconclusive main result. The note in brackets gives the kind of curve behind each potency; many fits are weak.

One experiment in a line: S16 Schwann cell PMP22 intronic element beta-lactamase assay (AID 624044). The note with it: S16 rat Schwann cells, PMP22 element beta-lactamase FRET, 24 h; measured here: 460 nm blue channel. An excerpt:
Description: Charcot-Marie-Tooth-Association [CMTA] National Center for Advancing Translational Sciences [NCATS] Charcot-Marie-Tooth (CMT) disease was first characterized by Jean-Martin Charcot and Pierre Marie in France and, independently, by Howard Henry Tooth in England in 1886. CMT is one of the most common inherited neurological diseases, affecting approximately 1 in 2,500 Americans. […] The most prevalent type of CMT is known as CMT1A and caused by a duplication of the PMP22 gene which leads to over-expression of this protein. PMP22 is a glycosylated intrinsic membrane protein accounting for 2-5% of the myelin protein content, and its over-expression results in demyelination and subsequently axonal loss. A pair of cellular transcription-based assays was developed in the S16 rat Schwann cell lines (Hai, M., et al., 2002) stably transfected with orthogonal reporters - firefly luciferase (Fluc) and beta-lactamase (beta-Lac) - whose expression is driven by an intronic regulatory element of the PMP22 gene (Jones, E.A., et al., 2011) to recapitulate endogenous expression of PMP22. The current assay employs Blac as a reporter of PMP22 expression. A comprehensive library of approved drugs, the NCGC Pharmaceutical Collection (Huang, R., et al., 2011), was screened in the cross-validating platform of the orthogonal reporter assays to identify drug modulators inhibitory towards PMP22 expression. A set of counter-screens was devised to address non-specific activity of the library. An ATP-dependent CellTiter-Glo assay (developed by Promega Corp) was utilized to control cell viability. In addition, biochemical Fluc enzyme assay was performed to assess direct inhibition of the Fluc enzymatic activity. References Hai, M., Muja, N., DeVries, G.H., Quarles, R.H. and Patel, P.I. Comparative analysis of Schwann cell lines as model systems for myelin gene transcription studies. J Neurosci Res, 2002. 69(4): pp 497-508 Huang, R., Southall, N., Wang, Y., Yasgar A., Shinn P., Jadhav, A. , Nguyen, D.-T. and Austin, C.P., The NCGC pharmaceutical collection: a comprehensive resource of clinically approved drugs enabling repurposing and chemical genomics. Sci Transl Med, 2011. 3(80): p. 80ps16.
S16 Schwann cell PMP22 intronic element beta-lactamase assay The beta-Lac-expressing S16 cells were seeded in black clear-bottom 1536 well plates at between 500-750 cells/6uL in DMEM medium containing 10% FBS, w/o phenol red. After overnight incubation at 37 degree Celsius/5% C02, 23 nL of compounds or DMSO were delivered to each well using a pin tool, followed by 24h-incubation at 37 degree Celsius/5% C02. Then one microl of LiveBLAzer FRET B/G detection mix (Invitrogen) was added to each well. An EnVision plate reader (PerkinElmer) was used to detect the dual beta-Lac output composed of fluorescence at 460nm for beta-Lac expression and FRET at 535nm for cell viability. The % signal at 535 nm was scaled to a full range of DMSO and zero and then normalized using the maximum response observed in the screen as 100% activity. The % signal at 460nm was normalized to the average readings of potassium clavulanate (a positive control) - treated cells relative to DMSO-treated cells (0% Activity). The concentration-effect curves were then classified based on curve quality (r2), response magnitude and degree of measured activity.
Regarding `CN1CCC[C@@H]1Cc1c[nH]c2ccc(CCS(=O)(=O)c3ccccc3)cc12`, the AC50 was 15800 nM [falling, partial curve, poor fit]. The same measure, in the same setting: next, `Cc1ccc(C(C)(C)c2ccc(C)cc2)cc1`: 8910 nM [rising, partial curve, poor fit]. Regarding `CCCCCCCCCCC(CO)CCCCCCCC` (stereo not given), the AC50 is 1990 nM [falling, full curve, poor fit]. Same read-out and setting: to `CC(C)C[C@@H](NC(=O)[C@H](Cc1ccccc1)NC(=O)c1cnccn1)B(O)O` belongs 7.94 nM [falling, full curve]; to `CC(=O)[C@]1(O)Cc2c(O)c3c(c(O)c2[C@@H](O[C@H]2C[C@H](N)[C@H](O)[C@H](C)O2)C1)C(=O)c1c(O)cccc1C3=O`, 199 nM [falling, full curve]; to `CC(C)NC[C@H](O)c1cc(O)cc(O)c1`, 1410 nM [falling, full curve, poor fit]. Still for that read-out and setting: next, `CN(Cc1cnc2nc(N)nc(N)c2n1)c1ccc(C(=O)N[C@@H](CCC(=O)O)C(=O)O)cc1`: 112 nM [falling, full curve, poor fit]; `CN(C)CC[C@@](O)(c1ccccc1)c1ccccc1Cl`: 12600 nM [falling, single point]; `Cc1cccc(N(C)C(=S)Oc2ccc3ccccc3c2)c1`: 3010 nM [falling, full curve, poor fit]. On the same count and under the same terms, next, `CCC(C)C(=O)OC1CCC=C2C=CC(C)C(CCC3CC(O)CC(=O)O3)[C@@H]21` (stereo not given in full): 562 nM [falling, full curve, poor fit]. Turning to `CCN(CC)C(=S)S`, the AC50 is 9990 nM [falling, partial curve, poor fit]. For `O=S1(=O)c2cccc3cccc(c23)N1CCCN1CCN(c2ccc(F)cc2)CC1`, the AC50 is 1410 nM [falling, full curve]. Regarding `OC[C@H](S)CS`, the AC50 is 22400 nM [falling, partial curve, poor fit].

For `C=C[C@H]1CN2CCC1C[C@H]2[C@H](O)c1ccnc2ccc(OC)cc12` (stereo not given in full), the half-maximal activity concentration (AC50) is 7070 nM [falling, partial curve]. In the case of `COc1ccccc1N1CCN(CC(O)COc2cccc3ccccc23)CC1` (stereo not given), the AC50 is 5010 nM [falling, full curve, poor fit]. Same read-out and setting: to `CN(C)c1ccc2nc3ccc(=[N+](C)C)cc-3sc2c1` belongs 999 nM [falling, full curve].

`O=c1[nH]c(=O)n([C@H]2C[C@H](O)[C@@H](CO)O2)cc1Br`: the AC50 was 15800 nM [falling, partial curve]. Take `COC(=O)[C@H]1[C@H]2C[C@@H]3c4[nH]c5ccccc5c4CCN3C[C@H]2C[C@@H](OC(=O)c2cc(OC)c(OC)c(OC)c2)[C@@H]1OC`: the AC50 was 11200 nM [falling, full curve].

Regarding `O=c1c(-c2ccccc2)c1-c1ccccc1`, the AC50 was 25100 nM [falling, partial curve]. Consider `Clc1cc(Cl)c(OCC#CI)cc1Cl`, for which the AC50 is 25100 nM [falling, single point].

As for `FC(F)OC(Cl)C(F)(F)F` (stereo not given), the concentration at half-maximal activity (AC50) is 9990 nM [falling, full curve, poor fit].

In the case of `O=C1c2c(O)ccc(O)c2C(=O)c2c(NCCNCCO)ccc(NCCNCCO)c21`, the AC50 is 1070 nM [falling, full curve]. Still for that read-out and setting: to `CC(C)(C)CC(C)(C)c1cc(Cc2cc(C(C)(C)CC(C)(C)C)cc(-n3nc4ccccc4n3)c2O)c(O)c(-n2nc3ccccc3n2)c1` belongs 316 nM [falling, full curve, poor fit]; to `Clc1ccc2nsnc2c1NC1=NCCN1`, 14100 nM [rising, single point]. As for `CCCC(=O)OC[C@@H](OC(=O)CCC)[C@@H](OC(=O)CCC)[C@H](Cn1c2nc(=O)[nH]c(=O)c-2nc2cc(C)c(C)cc21)OC(=O)CCC`, the AC50 was 25100 nM [falling, single point]. Still for that read-out and setting: next, `CC(=O)OC[C@H]1O[C@@H](n2ncc(=O)[nH]c2=O)[C@H](OC(C)=O)[C@@H]1OC(C)=O`: 5620 nM [falling, full curve]. Still for that read-out and setting: next, `CCCCCCCCCCCCCC(=O)OCC(COP(=O)([O-])OCC[N+](C)(C)C)OC(=O)CCCCCCCCCCCCC` (stereo not given): 1120 nM [falling, full curve, poor fit].

The same experiment, now with this note: S16 rat Schwann cells, PMP22 element beta-lactamase FRET, 24 h; measured here: 530 nm viability channel.
In the case of `CN1CCC[C@@H]1Cc1c[nH]c2ccc(CCS(=O)(=O)c3ccccc3)cc12`, the half-maximal activity concentration (AC50) is 1120 nM [falling, full curve]. On the same count and under the same terms, to `CC(C)C[C@@H](NC(=O)[C@H](Cc1ccccc1)NC(=O)c1cnccn1)B(O)O` belongs 11.2 nM [rising, full curve].

Regarding `Cc1cccc(N(C)C(=S)Oc2ccc3ccccc3c2)c1`, the AC50 was 4470 nM [falling, full curve, poor fit]. The same measure, in the same setting: to `CCC(C)C(=O)OC1CCC=C2C=CC(C)C(CCC3CC(O)CC(=O)O3)[C@@H]21` (stereo not given in full) belongs 355 nM [falling, full curve, poor fit].

Take `OC[C@H](S)CS`: the AC50 is 7940 nM [rising, partial curve]. Same read-out and setting: next, `COc1ccccc1N1CCN(CC(O)COc2cccc3ccccc23)CC1` (stereo not given): 7.08 nM [falling, full curve, poor fit]; `CN(C)c1ccc2nc3ccc(=[N+](C)C)cc-3sc2c1`: 1580 nM [falling, full curve]; `COC(=O)[C@H]1[C@H]2C[C@@H]3c4[nH]c5ccccc5c4CCN3C[C@H]2C[C@@H](OC(=O)c2cc(OC)c(OC)c(OC)c2)[C@@H]1OC`: 224 nM [rising, full curve]. With `O=c1c(-c2ccccc2)c1-c1ccccc1`, the AC50 is 3.16 nM [falling, full curve]. `Clc1cc(Cl)c(OCC#CI)cc1Cl`: the AC50 was 2510 nM [falling, full curve, poor fit]. Still for that read-out and setting: to `O=C1c2c(O)ccc(O)c2C(=O)c2c(NCCNCCO)ccc(NCCNCCO)c21` belongs 12600 nM [falling, single point]. Same read-out and setting: next, `Nc1nc2c(ncn2CCC(CO)CO)c(=O)[nH]1`: 1260 nM [falling, full curve, poor fit].

On to `CCCC(=O)OC[C@@H](OC(=O)CCC)[C@@H](OC(=O)CCC)[C@H](Cn1c2nc(=O)[nH]c(=O)c-2nc2cc(C)c(C)cc21)OC(=O)CCC`, for which the concentration at half-maximal activity (AC50) was 15800 nM [rising, partial curve].
